Structures are written as SMILES. Where a name gives a salt, the structure may show the parent alone. Some of the results follow. This is a noisy data set.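 Optical density at 600 nm measured yeast growth. Because the two-hybrid strains grew without histidine, growth required Pex3–Pex19 binding. Trypanosome selectivity meant a compound inhibited the trypanosome-pair strain's growth by more than 65% but the human-pair strain's by less than 65%.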

This assay concerns human PEX3-PEX19 interaction (yeast two-hybrid). Put plainly: growth inhibition of yeast two-hybrid strain reporting HsPex3-HsPex19 interaction, relative to DMSO; higher = stronger inhibition of human Pex3-Pex19 interaction / growth. The following applies: 100 µM; 24 h; 3-aminotriazole 10 mM.
Regarding `Cc1cc2c(cc1Cl)N(C(=O)Nc1ccc(Oc3cccnc3C)nc1)CC2`, the growth inhibition was 50.4%.

As to `O=C1NC(=O)c2cc(Nc3ccccc3)c(Nc3ccccc3)cc21`, the growth inhibition was -32.6%.

For `CN(C)CCC=C1c2ccccc2CCc2ccccc21` [Amitriptyline hydrochloride], the growth inhibition amounted to 44.1%.

With `CCN(CC)CCCN(c1ccccc1)C1Cc2ccccc2C1` [Aprindine hydrochloride], the growth inhibition was 42.3%. In the case of `CC#C[C@]1(O)CC[C@H]2[C@@H]3CCC4=CC(=O)CCC4=C3[C@@H](c3ccc(N(C)C)cc3)C[C@@]21C` [Mifepristone], the growth inhibition was determined as 33.8%. For `C[C@H](O)C(=O)C1=Nc2c(nc(N)[nH]c2=O)NC1` [Sepiapterin] the value was 52%. For `O=C1NCC2(CCN(CCc3ccccc3)CC2)O1` [Fenspiride hydrochloride] the value was 43.5%; for `O=C(Nc1cccnc1)N1CCC(Cc2cccc(Oc3ccc(C(F)(F)F)cn3)c2)CC1` [PF 3845 hydrate], 63.1%. For `OCCN1CCN(CCCN2c3ccccc3C=Cc3ccccc32)CC1` [Opipramol dihydrochloride] the value was 43.2%; for `CCCCCCN(CCCCCC)C(=O)Cc1c(-c2ccc(F)cc2)[nH]c2ccccc12` [N,N-Dihexyl-2-(4-fluorophenyl)indole-3-acetamide], 26.5%. As to `O=c1[nH]c2ccccc2c2ccccc12` [6(5H)-Phenanthridinone], the growth inhibition was found to be 57.5%. For `C[C@H](N[C@@H](CCc1ccccc1)C(=O)O)C(=O)N1CCC[C@H]1C(=O)O` [Enalaprilat dihydrate] the value was 51.1%; for `C#CCN(C)Cc1ccccc1` [Pargyline hydrochloride], 41.5%. For `CN(C)c1ccc(O)c2c1C[C@H]1C[C@H]3[C@H](N(C)C)C(O)=C(C(N)=O)C(=O)[C@@]3(O)C(O)=C1C2=O` [Minocycline hydrochloride] the value was 32.4%. Turning to `N[C@H](C(=O)O)c1cc(O)cc(O)c1` [(S)-3,5-Dihydroxyphenylglycine], the growth inhibition was determined as 10.2%. Turning to `C[N+](C)(C)CCCCCC[N+](C)(C)C` [Hexamethonium bromide], the growth inhibition is 30.7%. Then `Nc1cc(Cl)c(NC2=NCCN2)c(Cl)c1` [p-Aminoclonidine hydrochloride], with 41.8%. Then `N#CC(C#N)=C(N)/C(C#N)=C/c1ccc(O)cc1` [Tyrphostin AG 112], with 49.6%; and `CC[C@]1(O)C[C@@H]2CN(CCc3c([nH]c4ccccc34)[C@@](C(=O)OC)(c3cc4c(cc3OC)N(C)[C@H]3[C@@](O)(C(=O)OC)[C@H](OC(C)=O)[C@]5(CC)C=CCN6CC[C@]43[C@@H]65)C2)C1` [Vinblastine sulfate salt], with 52.7%; and `CN(C)C[C@H](O)Cn1c2ccc(Br)cc2c2cc(Br)ccc21` (racemic) [Wiskostatin], with 84.7%. Then `CCC1(c2ccccc2)C(=O)NCNC1=O` [Primidone], with 46.4%; and `NC(=O)c1ncn([C@@H]2O[C@H](CO)[C@@H](O)[C@H]2O)n1` [Ribavirin], with 47.3%; and `CN1CCc2cccc3c2[C@H]1Cc1ccc(O)c(O)c1-3` [Apomorphine hydrochloride hemihydrate], with 23.9%. Take `NC1CONC1=O` (racemic) [DL-Cycloserine]: the growth inhibition came out at 31.3%.

On to `Nc1nc(N)c2nc(-c3ccccc3)c(N)nc2n1` [Triamterene], for which the growth inhibition is -3.1%. For `C[N+](C)(C)CCO.[Br-]` [Choline bromide] the value was 43.8%; for `CC1(C2CCCC2)Cc2cc(OCC(=O)O)c(Cl)c(Cl)c2C1=O` (stereo not given), 44.5%; for `CCCCCCCCCCCCCCCCCCOCC(COP(=O)([O-])OCC[N+](C)(C)C)OC` (stereo not given), 85.3%. Turning to `Cc1cccc(-c2[nH]c(C(C)(C)C)nc2-c2ccc3nccnc3c2)n1`, the growth inhibition amounted to 34.6%.

On to `CNCCCC12CCC(c3ccccc31)c1ccccc12` [Maprotiline hydrochloride], for which the growth inhibition was determined as 31.5%. For `S=C(S)N1CCCC1` [Ammonium pyrrolidinedithiocarbamate], the growth inhibition worked out at 86.5%. For `COc1ccc(/C=C/c2nc(NCCCN(C)C)c3ccccc3n2)cc1` the value was 4.53%; for `NC[C@@H]1O[C@H](O[C@H]2[C@@H](O)[C@H](O[C@@H]3[C@@H](O)[C@H](N)C[C@H](N)[C@H]3O[C@H]3O[C@H](CO)[C@@H](O)[C@H](O)[C@H]3N)O[C@@H]2CO)[C@H](N)[C@@H](O)[C@@H]1O` [Paromomycin sulfate], 41%. For `CC1(C)CCC=[N+]1[O-]` [5,5-Dimethyl-1-pyrroline-N-oxide] the value was 41.7%; for `C[C@]12CCC(=O)C=C1CC[C@@H]1[C@@H]2C(=O)C[C@@]2(C)[C@H]1CC[C@]2(O)C(=O)CO` [Cortisone], 2.46%.

Source of the values: the supplement of paper PMC8326762, “A Small Molecule Inhibitor of Pex3–Pex19 Interaction Disrupts Glycosome Biogenesis and Causes Lethality in Trypanosoma brucei” (Frontiers in Cell and Developmental Biology, 2021).
